According to PubChem BioAssay AID1487 (National Center for Advancing Translational Sciences (NCATS), 2009):
This is one part of the list. Further columns of the screen follow, without active or inactive calls. Compounds called inactive in the main read-out are mostly missing here. Potencies come from curve fits of mixed quality, noted in brackets.

Experiment: qHTS Assay for Modulators of Lamin A Splicing
Details: HeLa LMNA splicing GFP/RFP minigene ratio, 48 h
How it was run: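 S3 HeLa stable clones carrying a lamin A-EGFP splicing minigene plus DsRed2 were seeded at 600 cells/well in Opti-MEM with 2% FBS, pin-dosed and incubated 48 h at 37°C. Acumen cytometry (488 nm) gave the GFP/RFP total-intensity ratio.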

[1] = measured here: RFP viability control channel
[2] = measured here: GFP splicing reporter channel

SMILES	AC50 [1]	AC50 [2]
CCOC(=O)c1c(C)oc2ccc(OCc3cc(C(=O)OC)oc3C)cc12	17.8 µM [rising, single point]	–
Cc1nn(CCCC(=O)Nc2cc(Oc3ccc(F)cc3)cc([N+](=O)[O-])c2)c(C)c1[N+](=O)[O-]	15.8 µM [rising, single point]	–
COC(=O)c1nn(-c2nc(-c3ccc(OC)c(OC)c3)cc(C(F)(F)F)n2)cc1[N+](=O)[O-]	–	4.47 µM [falling, full curve, poor fit]
COc1ccccc1N1CCN(C(=O)C2CCCN(S(=O)(=O)c3ccc4c(c3)oc(=O)n4C)C2)CC1 (centres undefined)	0.891 µM [falling, full curve]	6.31 µM [falling, partial curve, poor fit]
COC(=O)c1sccc1S(=O)(=O)N(CC(=O)NCc1ccccc1)c1ccc(C)cc1	–	0.02 µM [falling, full curve, poor fit]
COc1ccc(-c2c(C)sc(NC(=O)c3ccnn3C)c2C#N)cc1	6.31 µM [rising, partial curve]	–
COc1ccc2c(c1)c(CC(=O)O)c(C)n2Cc1ccc(F)cc1	11.2 µM [rising, partial curve, poor fit]	0.126 µM [rising, full curve, poor fit]
CCc1c(C#N)c(SCCC(=O)Nc2cccc(OC)c2)nc2c1C(=O)CC(C)(C)C2	35.5 µM [rising, single point]	–
Cc1ccc(S(=O)(=O)c2nc(Nc3nccs3)sc2Cl)cc1	5.62 µM [rising, single point]	–
Cc1ccc(NC(=O)c2ccc([N+](=O)[O-])o2)cc1C	8.91 µM [falling, partial curve]	2 µM [falling, full curve]
Cc1cc(C(=O)COc2cccc(-n3cnnn3)c2)c(C)n1-c1ccccc1	12.6 µM [rising, partial curve]	14.1 µM [rising, partial curve]
CCCc1cc(=O)[nH]c(SCC(=O)c2cc(C)n(CCOC)c2C)n1	–	11.2 µM [rising, partial curve]
CCCCNC(=O)C1CCCN(S(=O)(=O)c2ccc(S(=O)(=O)NCC(C)C)cc2)C1 (centres undefined)	35.5 µM [rising, single point]	–
O=C(N/N=C/c1cc(Cl)cc([N+](=O)[O-])c1O)C1CC1	25.1 µM [falling, partial curve]	–
O=C(Nc1ccc2c(c1)OCO2)C1CCN(S(=O)(=O)c2ccc3c(c2)OCCO3)CC1	17.8 µM [rising, partial curve]	–

In the list so far, these contain a cyano group.
SMILES	AC50 [1]	AC50 [2]
COc1ccc(-c2c(C)sc(NC(=O)c3ccnn3C)c2C#N)cc1	6.31 µM [rising, partial curve]	–
CCc1c(C#N)c(SCCC(=O)Nc2cccc(OC)c2)nc2c1C(=O)CC(C)(C)C2	35.5 µM [rising, single point]	–
